Measurements: the supplement of paper PMC10849652
This is one part of the list.

By UniProt entry, the sequences of proteins in these tests, tags left out. Where a name states a change or a piece, a line headed by the entry shows the natural chain unless it says otherwise.
UniProt Q13426: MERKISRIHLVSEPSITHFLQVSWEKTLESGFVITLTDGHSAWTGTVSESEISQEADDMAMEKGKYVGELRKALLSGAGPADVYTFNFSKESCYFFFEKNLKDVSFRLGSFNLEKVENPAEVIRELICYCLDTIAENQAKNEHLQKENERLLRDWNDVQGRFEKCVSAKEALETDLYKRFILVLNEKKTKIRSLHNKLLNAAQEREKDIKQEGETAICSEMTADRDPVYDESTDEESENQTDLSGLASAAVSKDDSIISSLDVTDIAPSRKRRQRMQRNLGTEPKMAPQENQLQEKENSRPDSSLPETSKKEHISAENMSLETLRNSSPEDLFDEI
UniProt Q9NYG2: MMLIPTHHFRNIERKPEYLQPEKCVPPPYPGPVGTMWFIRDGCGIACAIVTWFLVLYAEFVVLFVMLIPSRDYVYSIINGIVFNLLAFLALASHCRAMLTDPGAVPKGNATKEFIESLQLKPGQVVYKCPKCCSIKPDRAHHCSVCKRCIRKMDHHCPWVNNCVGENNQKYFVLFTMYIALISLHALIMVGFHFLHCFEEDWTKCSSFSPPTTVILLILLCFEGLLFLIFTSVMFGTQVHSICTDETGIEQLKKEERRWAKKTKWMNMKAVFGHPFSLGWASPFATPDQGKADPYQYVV
UniProt Q7Z2W4: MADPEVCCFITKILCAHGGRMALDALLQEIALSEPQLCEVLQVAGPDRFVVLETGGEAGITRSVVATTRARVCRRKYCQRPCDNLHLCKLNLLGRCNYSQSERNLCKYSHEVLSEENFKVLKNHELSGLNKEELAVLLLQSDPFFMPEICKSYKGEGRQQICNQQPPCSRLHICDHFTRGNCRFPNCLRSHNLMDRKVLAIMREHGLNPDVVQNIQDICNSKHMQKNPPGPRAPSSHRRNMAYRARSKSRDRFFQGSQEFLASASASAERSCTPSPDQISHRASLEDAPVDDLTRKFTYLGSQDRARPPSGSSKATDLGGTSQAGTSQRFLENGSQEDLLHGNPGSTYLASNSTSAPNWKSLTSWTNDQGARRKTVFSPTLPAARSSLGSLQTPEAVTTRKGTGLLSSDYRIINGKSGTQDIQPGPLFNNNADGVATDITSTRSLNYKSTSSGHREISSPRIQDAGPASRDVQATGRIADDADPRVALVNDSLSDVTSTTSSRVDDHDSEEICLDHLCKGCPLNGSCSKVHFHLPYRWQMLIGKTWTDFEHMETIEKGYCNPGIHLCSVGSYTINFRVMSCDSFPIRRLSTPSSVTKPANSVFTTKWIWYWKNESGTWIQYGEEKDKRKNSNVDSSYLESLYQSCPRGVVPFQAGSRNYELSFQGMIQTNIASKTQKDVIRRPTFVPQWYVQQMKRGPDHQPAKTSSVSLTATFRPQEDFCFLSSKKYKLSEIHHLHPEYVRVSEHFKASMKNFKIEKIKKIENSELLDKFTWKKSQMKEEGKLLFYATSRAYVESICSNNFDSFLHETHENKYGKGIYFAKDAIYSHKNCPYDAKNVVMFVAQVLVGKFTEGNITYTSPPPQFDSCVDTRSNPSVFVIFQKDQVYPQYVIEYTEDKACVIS
UniProt O95619, whole entry, looked up: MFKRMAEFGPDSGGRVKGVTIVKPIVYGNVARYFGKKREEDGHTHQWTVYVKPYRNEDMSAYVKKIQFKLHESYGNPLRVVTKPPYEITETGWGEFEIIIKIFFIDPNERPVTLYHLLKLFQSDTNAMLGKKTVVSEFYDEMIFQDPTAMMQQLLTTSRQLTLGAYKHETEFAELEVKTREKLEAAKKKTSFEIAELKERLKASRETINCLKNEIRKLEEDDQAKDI
UniProt Q9HBF4: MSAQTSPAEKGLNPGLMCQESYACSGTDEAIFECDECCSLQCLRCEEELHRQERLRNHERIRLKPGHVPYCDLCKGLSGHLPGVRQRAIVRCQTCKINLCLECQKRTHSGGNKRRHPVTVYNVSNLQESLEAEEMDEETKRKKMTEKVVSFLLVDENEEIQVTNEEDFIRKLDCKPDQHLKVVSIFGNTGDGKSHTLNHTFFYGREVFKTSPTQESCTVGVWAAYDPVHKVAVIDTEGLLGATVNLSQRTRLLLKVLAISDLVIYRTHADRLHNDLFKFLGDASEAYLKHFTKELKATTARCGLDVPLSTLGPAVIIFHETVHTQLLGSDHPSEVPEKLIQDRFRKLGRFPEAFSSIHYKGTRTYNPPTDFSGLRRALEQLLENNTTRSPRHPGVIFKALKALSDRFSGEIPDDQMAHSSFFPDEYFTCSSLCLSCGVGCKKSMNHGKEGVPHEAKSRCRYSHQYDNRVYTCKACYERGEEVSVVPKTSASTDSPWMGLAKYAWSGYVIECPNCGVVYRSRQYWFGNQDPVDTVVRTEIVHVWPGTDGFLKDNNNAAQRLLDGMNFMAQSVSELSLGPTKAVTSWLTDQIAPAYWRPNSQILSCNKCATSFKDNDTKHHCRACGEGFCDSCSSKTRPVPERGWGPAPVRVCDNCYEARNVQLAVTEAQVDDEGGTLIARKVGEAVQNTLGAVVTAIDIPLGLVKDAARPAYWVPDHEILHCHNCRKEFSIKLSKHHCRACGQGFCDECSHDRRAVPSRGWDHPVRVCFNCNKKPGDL
UniProt O15498: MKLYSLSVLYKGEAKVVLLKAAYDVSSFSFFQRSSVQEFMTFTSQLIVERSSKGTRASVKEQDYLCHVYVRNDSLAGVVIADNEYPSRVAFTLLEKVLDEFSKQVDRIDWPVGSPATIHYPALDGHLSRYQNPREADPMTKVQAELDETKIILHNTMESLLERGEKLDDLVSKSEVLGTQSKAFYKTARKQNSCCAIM
UniProt Q96K21: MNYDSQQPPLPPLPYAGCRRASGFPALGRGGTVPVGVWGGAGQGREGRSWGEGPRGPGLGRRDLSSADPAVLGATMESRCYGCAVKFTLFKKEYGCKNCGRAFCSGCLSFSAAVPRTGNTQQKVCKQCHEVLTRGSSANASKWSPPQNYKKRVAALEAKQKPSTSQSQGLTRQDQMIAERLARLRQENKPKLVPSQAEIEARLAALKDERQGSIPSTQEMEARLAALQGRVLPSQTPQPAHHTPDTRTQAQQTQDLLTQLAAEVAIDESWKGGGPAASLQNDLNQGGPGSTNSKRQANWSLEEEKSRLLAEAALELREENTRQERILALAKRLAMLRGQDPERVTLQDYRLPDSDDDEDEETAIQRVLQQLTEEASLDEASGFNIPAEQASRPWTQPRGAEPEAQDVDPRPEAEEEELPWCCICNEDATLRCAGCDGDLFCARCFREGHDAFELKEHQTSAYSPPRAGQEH
UniProt P17028: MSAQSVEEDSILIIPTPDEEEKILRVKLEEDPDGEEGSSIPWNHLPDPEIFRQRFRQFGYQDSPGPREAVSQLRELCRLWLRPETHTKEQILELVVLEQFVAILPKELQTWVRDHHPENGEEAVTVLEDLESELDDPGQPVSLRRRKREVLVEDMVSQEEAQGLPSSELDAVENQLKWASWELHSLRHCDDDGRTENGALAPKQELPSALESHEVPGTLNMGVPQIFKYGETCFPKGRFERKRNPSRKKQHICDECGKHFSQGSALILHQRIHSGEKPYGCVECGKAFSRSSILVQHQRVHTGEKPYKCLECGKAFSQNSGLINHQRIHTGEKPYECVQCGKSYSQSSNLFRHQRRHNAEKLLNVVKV
UniProt Q9GZM5: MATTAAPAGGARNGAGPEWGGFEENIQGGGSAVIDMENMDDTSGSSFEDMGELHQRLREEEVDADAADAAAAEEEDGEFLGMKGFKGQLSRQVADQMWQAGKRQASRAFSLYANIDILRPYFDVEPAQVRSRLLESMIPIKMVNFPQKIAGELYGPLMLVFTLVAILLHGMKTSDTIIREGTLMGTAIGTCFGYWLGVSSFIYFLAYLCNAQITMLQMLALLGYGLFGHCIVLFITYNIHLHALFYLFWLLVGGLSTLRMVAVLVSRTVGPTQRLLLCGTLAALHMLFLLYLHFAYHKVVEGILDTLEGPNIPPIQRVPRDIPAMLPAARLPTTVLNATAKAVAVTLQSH
UniProt Q04917: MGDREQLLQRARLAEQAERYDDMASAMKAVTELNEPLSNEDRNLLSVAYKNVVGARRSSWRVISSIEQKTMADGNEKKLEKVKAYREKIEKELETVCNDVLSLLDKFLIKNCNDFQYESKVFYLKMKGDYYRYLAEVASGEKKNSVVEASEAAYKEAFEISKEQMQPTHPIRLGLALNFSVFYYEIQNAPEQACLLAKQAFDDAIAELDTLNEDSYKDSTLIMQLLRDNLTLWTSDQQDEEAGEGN
UniProt Q6PJT7: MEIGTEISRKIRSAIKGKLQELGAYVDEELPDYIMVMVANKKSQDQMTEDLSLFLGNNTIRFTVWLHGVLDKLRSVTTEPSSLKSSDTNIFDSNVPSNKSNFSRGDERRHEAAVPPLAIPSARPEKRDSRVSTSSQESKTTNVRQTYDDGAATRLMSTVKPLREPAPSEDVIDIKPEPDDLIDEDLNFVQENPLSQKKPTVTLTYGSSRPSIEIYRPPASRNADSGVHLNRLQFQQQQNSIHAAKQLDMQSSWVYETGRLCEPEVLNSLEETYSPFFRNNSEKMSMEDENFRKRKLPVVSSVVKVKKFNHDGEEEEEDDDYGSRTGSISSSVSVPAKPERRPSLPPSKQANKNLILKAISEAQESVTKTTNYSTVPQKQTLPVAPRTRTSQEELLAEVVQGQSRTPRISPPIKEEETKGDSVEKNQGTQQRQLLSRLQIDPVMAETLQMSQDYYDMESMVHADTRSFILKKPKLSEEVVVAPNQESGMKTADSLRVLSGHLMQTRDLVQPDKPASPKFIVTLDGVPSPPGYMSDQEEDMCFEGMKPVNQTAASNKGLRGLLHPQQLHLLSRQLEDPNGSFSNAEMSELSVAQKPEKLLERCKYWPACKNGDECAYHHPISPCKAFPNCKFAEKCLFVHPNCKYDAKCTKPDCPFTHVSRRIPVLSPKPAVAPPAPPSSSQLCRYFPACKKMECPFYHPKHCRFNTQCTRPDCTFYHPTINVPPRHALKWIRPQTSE
UniProt Q7Z3T8: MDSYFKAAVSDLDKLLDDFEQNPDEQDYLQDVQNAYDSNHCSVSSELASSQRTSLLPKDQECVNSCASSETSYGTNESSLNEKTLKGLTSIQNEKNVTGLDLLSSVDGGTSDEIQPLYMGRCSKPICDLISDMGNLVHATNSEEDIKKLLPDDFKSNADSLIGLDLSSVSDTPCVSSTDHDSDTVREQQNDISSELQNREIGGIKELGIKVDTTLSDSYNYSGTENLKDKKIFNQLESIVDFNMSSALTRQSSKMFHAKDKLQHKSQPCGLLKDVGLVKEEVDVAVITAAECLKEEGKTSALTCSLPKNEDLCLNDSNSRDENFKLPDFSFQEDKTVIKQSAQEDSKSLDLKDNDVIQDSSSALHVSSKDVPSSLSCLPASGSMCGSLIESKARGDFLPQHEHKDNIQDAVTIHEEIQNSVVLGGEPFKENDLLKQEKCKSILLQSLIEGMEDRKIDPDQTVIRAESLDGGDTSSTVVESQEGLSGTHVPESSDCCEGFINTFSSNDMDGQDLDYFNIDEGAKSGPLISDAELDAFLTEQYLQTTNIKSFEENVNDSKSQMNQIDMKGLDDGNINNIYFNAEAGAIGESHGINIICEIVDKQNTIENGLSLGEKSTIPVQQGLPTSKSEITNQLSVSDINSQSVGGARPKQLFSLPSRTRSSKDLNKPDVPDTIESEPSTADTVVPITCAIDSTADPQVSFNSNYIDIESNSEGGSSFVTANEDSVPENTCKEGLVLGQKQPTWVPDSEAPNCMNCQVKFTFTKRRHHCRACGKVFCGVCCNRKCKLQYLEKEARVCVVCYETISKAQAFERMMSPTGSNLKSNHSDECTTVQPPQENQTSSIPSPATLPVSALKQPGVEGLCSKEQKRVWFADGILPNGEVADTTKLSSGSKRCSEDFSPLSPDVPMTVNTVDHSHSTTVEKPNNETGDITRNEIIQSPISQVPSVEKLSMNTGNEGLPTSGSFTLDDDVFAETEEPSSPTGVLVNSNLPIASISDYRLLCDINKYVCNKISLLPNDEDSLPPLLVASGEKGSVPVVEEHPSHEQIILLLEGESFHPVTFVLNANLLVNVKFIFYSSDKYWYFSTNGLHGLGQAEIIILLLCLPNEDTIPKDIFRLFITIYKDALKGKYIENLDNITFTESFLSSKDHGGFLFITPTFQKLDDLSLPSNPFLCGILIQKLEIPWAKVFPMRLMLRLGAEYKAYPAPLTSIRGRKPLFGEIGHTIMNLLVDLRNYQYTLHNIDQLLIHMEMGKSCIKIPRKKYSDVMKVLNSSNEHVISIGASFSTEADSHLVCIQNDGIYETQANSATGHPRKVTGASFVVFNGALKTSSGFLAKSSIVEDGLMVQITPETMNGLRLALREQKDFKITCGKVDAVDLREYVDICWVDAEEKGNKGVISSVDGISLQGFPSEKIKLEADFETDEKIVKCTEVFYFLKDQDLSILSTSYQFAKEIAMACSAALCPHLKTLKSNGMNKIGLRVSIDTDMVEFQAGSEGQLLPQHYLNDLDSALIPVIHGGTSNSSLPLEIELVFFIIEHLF

Key:
Assay in all cases: log2 fold change, soluble protein after heating vs DMSO (PISA); higher = thermal stabilisation; K562 cells, 10 uM, 30 min; active = over 0.2 and 3.5 SD of the protein, either way, in both replicates (recomputed)
[1] = compound: CC1=C(C=C(C=C1)NC(=O)C2=CC(=CC=C2)C(C)(C)C#N)NC3=CC4=C(C=C3)N=CN(C4=O)C
How it was run: (§1)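 K562 cells at 2×10^6 cells/mL were treated for 30 min with 10 μM compound, and aliquots were heated for 3 min over 48°C-58°C before pooling. Extraction used PBS with 0.5% NP-40 at 4°C, and soluble protein was the supernatant after 21,000xg for 90 min, measured by TMTpro 16plex LC-MS/MS with channel sums equalised. Thermal stability values, relative to control samples and from duplicates, are log2 fold changes.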

[2] = compound: CC1=C(C=C(C=C1)NC(=O)C2=CC(=CC=C2)N(C)C)NC(=O)C3=CC=C(C=C3)O
How it was run: as §1

[3] = compound: CC1=CC=C(C=C1)SC2=C3C=C(SC3=CN=C2)C(=O)N
How it was run: as §1

[4] = compound: CC1=NC(=CC=C1)C2=C(N=C(N2)C(C)(C)C)C3=CC4=NC=CN=C4C=C3
How it was run: as §1

[5] = compound: CCCCN(Cc1ccc(C(=O)NO)cc1)C(=O)Nc1ccccc1 [Nexturastat A]
How it was run: as §1

[6] = compound: CCCS(=O)(=O)Nc1ccc(F)c(C(=O)c2c[nH]c3ncc(-c4ccc(Cl)cc4)cc23)c1F [vemurafenib]
How it was run: as §1

[7] = compound: CCCS(=O)(=O)Nc1ccc(F)c(C(=O)c2c[nH]c3ncc(Cl)cc23)c1F
How it was run: as §1

[8] = compound: CCCc1cc(C)[nH]c(=O)c1CNC(=O)c1cc(-c2ccnc(N3CCN(C)CC3)c2)cc2c1cnn2C(C)C
How it was run: as §1

[9] = compound: CCN(CC)Cc1ccc2cc(COC(=O)Nc3ccc(C(=O)NO)cc3)ccc2c1 [givinostat]
How it was run: as §1

[10] = compound: CCN(CCCOc1ccc2c(Nc3cc(CC(=O)Nc4cccc(F)c4)[nH]n3)ncnc2c1)CCOP(=O)(O)O [barasertib]
How it was run: as §1

[11] = compound: CC[C@@H]1C(=O)N(C)c2cnc(Nc3ccc(C(=O)NC4CCN(C)CC4)cc3OC)nc2N1C1CCCC1
How it was run: as §1

[12] = compound: CC[C@@H]1C(=O)N(C)c2cnc(Nc3ccc(C(=O)N[C@H]4CC[C@H](N5CCN(CC6CC6)CC5)CC4)cc3OC)nc2N1C(C)C [volasertib]
How it was run: as §1

[13] = compound: CC[C@H](C)N1C=C(C2=C(C=C(C=C21)C3=CN=C(C=C3)N4CCNCC4)C(=O)NCC5=C(C=C(NC5=O)C)C)C
How it was run: as §1

[14] = compound: CC[C@H](C)[C@@H](C(=O)N[C@@H]([C@@H](C)O)C(=O)N[C@@H](CC(C)C)C(=O)[C@]1(CO1)C)NC(=O)[C@H]([C@@H](C)CC)N(C)C(=O)C [epoxomicin]
How it was run: as §1

[15] = compound: CCn1c(C(=O)N(C2CC2)C2CC2)cc2c3c(ncn3C)c(Nc3cc(C)n(C)n3)nc21
How it was run: as §1

[16] = compound: CCn1cc(-c2ccnc3[nH]c(-c4cccc(CN(C)C)c4)cc23)c(-c2ccc(NC(=O)N(C)C)cc2)n1
How it was run: as §1

[17] = compound: CN(C)CC(=O)Nc1ccc2[nH]c(=O)c3ccccc3c2c1
How it was run: as §1

[18] = compound: CN(CCOC1=CC=C(C=C1)C[C@H]2C(=O)NC(=O)S2)C3=CC=CC=N3 (racemic) [rosiglitazone]
How it was run: as §1

[19] = compound: CN1C2=C(C3=C1C(=O)N(N=C3)CC4=CC(=CC=C4)N)SC(=C2)S(=O)C
How it was run: as §1

[20] = compound: CN1CCC(CNc2ccc3ncc(-c4cccc(OC(F)(F)F)c4)n3n2)CC1
How it was run: as §1

Measured: log2 fold change

XRCC4 (UniProt Q13426)
inactive: [1] -0.015 | [2] -0.01 | [3] -0.042 | [4] 0.014 | [5] -0.046 | [6] -0.016 | [7] -0.065 | [8] 0.009 | [9] -0.026 | [10] -0.019 | [11] -0.004 | [12] 0.028 | [13] -0.034 | [14] 0.007 | [15] 0.028 | [16] -0.046 | [17] -0.012 | [18] 0.004 | [19] -0.055 | [20] 0.028

ZDHHC3 isoform 2 (UniProt Q9NYG2)
inactive: [1] 0.019 | [2] 0 | [3] 0.051 | [4] 0.035 | [5] 0.004 | [6] 0.026 | [7] 0.009 | [8] -0.433 | [9] -0.015 | [10] 0.017 | [11] -0.159 | [12] -0.174 | [13] -0.018 | [14] 0.052 | [15] -0.035 | [16] -0.086 | [17] 0.096 | [18] -0.017 | [19] -0.055 | [20] -0.275

ZC3HAV1 (UniProt Q7Z2W4)
inactive: [1] 0.043 | [2] -0.048 | [3] -0.06 | [4] -0.057 | [5] 0.495 | [6] 0.042 | [7] 0.012 | [8] 0.138 | [9] 0.157 | [10] -0.089 | [11] 0.15 | [12] 0.19 | [13] 0.01 | [14] -0.319 | [15] -0.003 | [16] 0.151 | [17] 0.019 | [18] 0.051 | [19] 0.529 | [20] 0.229

YEATS4 (UniProt O95619)
inactive: [1] 0.024 | [2] 0.03 | [3] -0.03 | [4] -0.003 | [5] -0.015 | [6] -0.093 | [7] -0.025 | [8] 0.026 | [9] -0.055 | [10] 0.029 | [11] 0.057 | [12] 0.012 | [13] 0.06 | [14] -0.01 | [15] -0.016 | [16] 0 | [17] -0.021 | [18] 0.029 | [19] 0.003 | [20] -0.004

ZFYVE1 (UniProt Q9HBF4)
inactive: [1] -0.093 | [2] -0.035 | [3] -0.026 | [4] 0.026 | [5] -0.1 | [6] -0.049 | [7] -0.107 | [8] -0.122 | [9] 0.113 | [10] 0.045 | [11] 0.108 | [12] -0.072 | [13] 0.021 | [14] 0.13 | [15] -0.082 | [16] -0.039 | [17] -0.071 | [18] 0.055 | [19] 0.04 | [20] -0.104

YKT6 (UniProt O15498)
inactive: [1] -0.02 | [2] 0.006 | [3] -0.003 | [4] 0.015 | [5] -0.068 | [6] -0.001 | [7] 0.001 | [8] -0.028 | [9] -0.042 | [10] -0.01 | [11] 0.028 | [12] -0.022 | [13] -0.007 | [14] 0.005 | [15] 0.008 | [16] 0.007 | [17] -0.039 | [18] 0.013 | [19] -0.09 | [20] 0.016

XPO4 (UniProt Q9C0E2)
inactive: [1] 0.007 | [2] 0.003 | [3] -0.001 | [4] 0.01 | [5] -0.057 | [6] -0.009 | [7] 0.036 | [8] -0.06 | [9] -0.002 | [10] 0.019 | [11] -0.082 | [12] -0.11 | [13] -0.013 | [14] 0.04 | [15] 0.006 | [16] -0.041 | [17] -0.027 | [18] 0.036 | [19] -0.059 | [20] -0.08

ZFYVE19 (UniProt Q96K21)
inactive: [1] -0.057 | [2] 0.053 | [3] -0.046 | [4] -0.013 | [5] -0.008 | [6] -0.036 | [7] -0.015 | [8] -0.003 | [9] 0.025 | [10] -0.056 | [11] -0.036 | [12] 0.045 | [13] -0.051 | [14] 0.057 | [15] -0.055 | [16] 0.05 | [17] 0.003 | [18] 0.023 | [19] -0.134 | [20] -0.029

ZMPSTE24 (UniProt O75844)
inactive: [1] 0.067 | [2] 0 | [3] -0.005 | [4] -0.003 | [5] -0.106 | [6] 0.054 | [7] 0.009 | [8] -0.008 | [9] 0.033 | [10] 0 | [11] 0.131 | [12] 0.138 | [13] -0.05 | [14] 0.071 | [15] 0.008 | [16] -0.012 | [17] 0.005 | [18] 0.005 | [19] -0.058 | [20] 0.083

ZNF24 (UniProt P17028)
inactive: [1] -0.034 | [2] 0.008 | [3] -0.064 | [4] -0.053 | [5] 0.17 | [6] -0.133 | [7] -0.057 | [8] 0.022 | [9] -0.027 | [10] 0.022 | [11] 0 | [12] 0.211 | [13] 0.034 | [14] -0.076 | [15] -0.024 | [16] 0.118 | [17] -0.057 | [18] -0.011 | [19] 0.148 | [20] 0.001

YIPF3 (UniProt Q9GZM5)
inactive: [1] 0.046 | [2] 0.087 | [3] 0.013 | [4] -0.045 | [5] -0.019 | [6] -0.034 | [7] 0.015 | [8] -0.043 | [9] -0.06 | [10] -0.006 | [11] -0.026 | [12] -0.113 | [13] -0.023 | [14] 0.005 | [15] -0.023 | [16] 0.01 | [17] 0.057 | [18] 0.01 | [19] -0.055 | [20] 0.002

YWHAH (UniProt Q04917)
inactive: [1] 0.021 | [2] 0 | [3] -0.021 | [4] 0.029 | [5] -0.026 | [6] 0.012 | [7] -0.004 | [8] -0.011 | [9] -0.05 | [10] 0.019 | [11] -0.054 | [12] -0.035 | [13] 0.029 | [14] 0.045 | [15] 0.007 | [16] -0.005 | [17] -0.048 | [18] 0.032 | [19] -0.079 | [20] 0.006

ZC3H4 (UniProt Q9UPT8)
inactive: [1] -0.061 | [2] -0.007 | [3] -0.027 | [4] -0.112 | [5] 0.238 | [6] -0.082 | [7] -0.009 | [8] 0.083 | [9] -0.059 | [10] -0.107 | [11] 0.164 | [12] 0.435 | [13] -0.001 | [14] -0.171 | [15] -0.011 | [16] 0.174 | [17] -0.069 | [18] -0.102 | [19] 0.197 | [20] 0.18

ZC3H14 (UniProt Q6PJT7)
inactive: [1] -0.041 | [2] 0.016 | [3] -0.035 | [4] -0.029 | [5] 0.115 | [6] -0.029 | [7] 0.025 | [8] 0.131 | [9] 0.073 | [10] -0.05 | [11] 0.012 | [12] -0.167 | [13] 0.012 | [14] -0.051 | [15] -0.084 | [16] 0.065 | [17] -0.008 | [18] -0.035 | [19] 0.011 | [20] 0.079

YARS2 (UniProt Q9Y2Z4)
inactive: [1] 0.04 | [2] -0.083 | [3] 0.211 | [4] 0.01 | [5] 0.048 | [6] 0.002 | [7] -0.079 | [8] 0.167 | [9] 0.046 | [10] -0.007 | [11] -0.187 | [12] -0.434 | [13] 0.124 | [14] 0.097 | [15] -0.16 | [16] 0.083 | [17] 0.118 | [18] 0.024 | [19] 0.014 | [20] -0.02

ZFYVE16 (UniProt Q7Z3T8)
inactive: [1] 0.001 | [2] 0.024 | [3] 0.017 | [4] -0.015 | [5] -0.034 | [6] 0.036 | [7] -0.021 | [8] -0.001 | [9] -0.007 | [10] 0.033 | [11] -0.018 | [12] -0.031 | [13] 0.015 | [14] 0.025 | [15] -0.022 | [16] 0.012 | [17] -0.005 | [18] -0.005 | [19] -0.012 | [20] -0.081
